These are yes or no findings as the source states them, for the method shown. In cells and extracts the contact can be indirect. Some entries that bind do so weakly or less than the wild type. Tags and fused reporters may be left off the sequences shown.
Molecular target: T1, zCachd1_GFP (zebrafish) (UniProt E7F5Q0)
T1 sequence: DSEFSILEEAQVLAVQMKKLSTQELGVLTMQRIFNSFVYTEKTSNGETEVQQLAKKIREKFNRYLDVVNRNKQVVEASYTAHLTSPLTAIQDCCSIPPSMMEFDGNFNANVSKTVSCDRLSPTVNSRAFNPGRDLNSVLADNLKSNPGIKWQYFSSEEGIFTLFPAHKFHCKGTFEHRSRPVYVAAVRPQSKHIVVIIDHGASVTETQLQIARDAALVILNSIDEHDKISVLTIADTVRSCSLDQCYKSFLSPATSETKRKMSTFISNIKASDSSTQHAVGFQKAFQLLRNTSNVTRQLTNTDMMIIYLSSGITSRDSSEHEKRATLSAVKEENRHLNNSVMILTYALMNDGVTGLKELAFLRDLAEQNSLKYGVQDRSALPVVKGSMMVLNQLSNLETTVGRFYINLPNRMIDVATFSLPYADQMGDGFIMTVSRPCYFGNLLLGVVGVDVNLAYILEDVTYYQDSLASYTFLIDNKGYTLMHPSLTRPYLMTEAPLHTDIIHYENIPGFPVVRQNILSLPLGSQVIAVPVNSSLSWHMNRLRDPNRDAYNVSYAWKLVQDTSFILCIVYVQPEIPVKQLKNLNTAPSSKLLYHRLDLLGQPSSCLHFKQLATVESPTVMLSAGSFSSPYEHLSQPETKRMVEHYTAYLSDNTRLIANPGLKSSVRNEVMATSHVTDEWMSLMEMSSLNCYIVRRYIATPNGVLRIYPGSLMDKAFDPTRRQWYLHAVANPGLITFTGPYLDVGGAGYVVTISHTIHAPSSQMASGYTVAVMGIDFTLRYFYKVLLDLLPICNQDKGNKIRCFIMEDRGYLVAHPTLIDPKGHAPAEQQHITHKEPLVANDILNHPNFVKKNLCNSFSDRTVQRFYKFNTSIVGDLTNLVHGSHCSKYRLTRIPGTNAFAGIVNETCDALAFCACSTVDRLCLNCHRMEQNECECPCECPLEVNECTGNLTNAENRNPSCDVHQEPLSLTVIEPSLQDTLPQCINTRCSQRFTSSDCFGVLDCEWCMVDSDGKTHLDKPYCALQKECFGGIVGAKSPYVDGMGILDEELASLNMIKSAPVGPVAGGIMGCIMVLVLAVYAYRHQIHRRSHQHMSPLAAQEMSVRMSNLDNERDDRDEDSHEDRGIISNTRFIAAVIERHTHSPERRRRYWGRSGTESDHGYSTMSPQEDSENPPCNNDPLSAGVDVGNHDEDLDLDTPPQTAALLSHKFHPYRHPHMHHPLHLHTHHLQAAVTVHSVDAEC
Assay: co-IP; reverse co-IP: tsA-201 cells co-transfected with Cachd1_GFP, β1b and CaV2.2 (2:1:2); as the other co-IP but 150 mM NaCl in the co-IP buffer and two washes with 0.1% digitonin; IP with anti-GFP Ab; western blot

Chains of the proteins cited; added tags and fusions are not shown.
UniProt Q05152: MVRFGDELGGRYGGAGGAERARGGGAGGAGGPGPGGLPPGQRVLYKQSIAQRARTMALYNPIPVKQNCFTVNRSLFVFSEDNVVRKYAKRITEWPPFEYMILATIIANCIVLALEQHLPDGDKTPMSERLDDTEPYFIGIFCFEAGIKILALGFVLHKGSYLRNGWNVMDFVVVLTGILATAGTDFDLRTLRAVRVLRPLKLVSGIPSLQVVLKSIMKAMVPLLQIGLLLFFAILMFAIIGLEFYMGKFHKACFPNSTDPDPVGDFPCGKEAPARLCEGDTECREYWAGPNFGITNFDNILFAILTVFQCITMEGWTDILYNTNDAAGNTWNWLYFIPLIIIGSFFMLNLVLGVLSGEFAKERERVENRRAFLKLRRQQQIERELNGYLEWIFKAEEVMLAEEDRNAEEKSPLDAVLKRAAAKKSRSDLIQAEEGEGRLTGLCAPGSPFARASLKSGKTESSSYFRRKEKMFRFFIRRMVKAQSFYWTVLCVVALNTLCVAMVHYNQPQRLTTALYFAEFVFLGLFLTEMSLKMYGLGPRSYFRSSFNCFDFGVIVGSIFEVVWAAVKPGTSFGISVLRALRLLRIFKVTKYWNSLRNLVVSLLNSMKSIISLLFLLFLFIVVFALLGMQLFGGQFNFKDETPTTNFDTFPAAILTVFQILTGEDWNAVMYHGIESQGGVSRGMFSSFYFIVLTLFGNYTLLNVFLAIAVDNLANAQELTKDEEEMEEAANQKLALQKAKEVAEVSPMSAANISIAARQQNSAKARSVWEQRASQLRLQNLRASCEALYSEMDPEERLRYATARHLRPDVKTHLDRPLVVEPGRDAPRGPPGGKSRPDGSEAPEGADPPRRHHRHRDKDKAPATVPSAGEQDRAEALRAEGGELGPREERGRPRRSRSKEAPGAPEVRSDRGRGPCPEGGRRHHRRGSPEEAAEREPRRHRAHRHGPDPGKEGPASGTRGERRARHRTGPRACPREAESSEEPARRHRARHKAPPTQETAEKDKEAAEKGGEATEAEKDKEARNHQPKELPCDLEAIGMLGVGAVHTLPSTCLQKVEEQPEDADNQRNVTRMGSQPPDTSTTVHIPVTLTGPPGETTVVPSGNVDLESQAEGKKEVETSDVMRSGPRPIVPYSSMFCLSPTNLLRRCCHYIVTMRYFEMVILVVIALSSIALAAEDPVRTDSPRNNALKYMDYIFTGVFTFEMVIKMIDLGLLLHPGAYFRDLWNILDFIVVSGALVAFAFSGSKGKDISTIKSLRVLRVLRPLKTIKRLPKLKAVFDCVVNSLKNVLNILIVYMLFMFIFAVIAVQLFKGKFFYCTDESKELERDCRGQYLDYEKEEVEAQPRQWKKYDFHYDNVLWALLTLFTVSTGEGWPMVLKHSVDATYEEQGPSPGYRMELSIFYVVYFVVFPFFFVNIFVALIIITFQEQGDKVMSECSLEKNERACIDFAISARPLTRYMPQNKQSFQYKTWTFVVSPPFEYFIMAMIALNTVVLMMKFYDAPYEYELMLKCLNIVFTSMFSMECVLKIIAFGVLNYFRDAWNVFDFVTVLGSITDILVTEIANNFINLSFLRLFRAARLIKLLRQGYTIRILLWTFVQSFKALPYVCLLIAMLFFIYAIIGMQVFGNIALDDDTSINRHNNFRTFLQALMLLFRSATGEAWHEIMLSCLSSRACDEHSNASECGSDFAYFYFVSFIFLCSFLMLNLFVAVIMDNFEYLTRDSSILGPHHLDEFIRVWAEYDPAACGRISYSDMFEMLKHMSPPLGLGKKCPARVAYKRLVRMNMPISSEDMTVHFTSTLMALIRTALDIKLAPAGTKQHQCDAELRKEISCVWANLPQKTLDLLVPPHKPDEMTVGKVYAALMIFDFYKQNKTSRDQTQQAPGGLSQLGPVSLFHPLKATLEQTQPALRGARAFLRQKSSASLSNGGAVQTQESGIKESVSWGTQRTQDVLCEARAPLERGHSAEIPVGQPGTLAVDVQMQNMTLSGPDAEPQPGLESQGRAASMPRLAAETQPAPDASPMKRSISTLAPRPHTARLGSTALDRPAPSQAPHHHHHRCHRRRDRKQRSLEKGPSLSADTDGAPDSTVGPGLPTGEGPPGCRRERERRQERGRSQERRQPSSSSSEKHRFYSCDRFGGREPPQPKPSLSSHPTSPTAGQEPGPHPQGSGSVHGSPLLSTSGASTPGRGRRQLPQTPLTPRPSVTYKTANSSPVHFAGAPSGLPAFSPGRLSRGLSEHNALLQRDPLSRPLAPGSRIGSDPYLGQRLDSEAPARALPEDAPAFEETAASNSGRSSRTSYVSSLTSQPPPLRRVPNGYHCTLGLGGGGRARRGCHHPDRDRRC

CaV2.2-HA (from UniProt Q05152 1-2339) was tested, and the binding was “binds”.

Reference: paper PMC6231325
